Measurements as given in publication PMC11806014.
These are yes or no findings as the source states them, for the method shown. In cells and extracts the contact can be indirect. Some results given as binding are weak or reduced against the parent protein; the word gives no strength.

By UniProt entry, the sequences of proteins in these tests, tags left out.
UniProt Q06609: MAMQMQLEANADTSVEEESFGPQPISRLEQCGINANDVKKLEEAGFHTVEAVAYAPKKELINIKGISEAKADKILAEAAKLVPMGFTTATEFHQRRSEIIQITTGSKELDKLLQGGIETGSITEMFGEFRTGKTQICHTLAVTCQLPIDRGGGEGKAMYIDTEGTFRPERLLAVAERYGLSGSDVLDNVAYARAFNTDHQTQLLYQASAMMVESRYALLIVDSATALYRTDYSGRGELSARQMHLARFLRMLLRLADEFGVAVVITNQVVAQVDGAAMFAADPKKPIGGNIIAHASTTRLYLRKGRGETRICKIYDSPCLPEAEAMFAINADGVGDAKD
UniProt P51587: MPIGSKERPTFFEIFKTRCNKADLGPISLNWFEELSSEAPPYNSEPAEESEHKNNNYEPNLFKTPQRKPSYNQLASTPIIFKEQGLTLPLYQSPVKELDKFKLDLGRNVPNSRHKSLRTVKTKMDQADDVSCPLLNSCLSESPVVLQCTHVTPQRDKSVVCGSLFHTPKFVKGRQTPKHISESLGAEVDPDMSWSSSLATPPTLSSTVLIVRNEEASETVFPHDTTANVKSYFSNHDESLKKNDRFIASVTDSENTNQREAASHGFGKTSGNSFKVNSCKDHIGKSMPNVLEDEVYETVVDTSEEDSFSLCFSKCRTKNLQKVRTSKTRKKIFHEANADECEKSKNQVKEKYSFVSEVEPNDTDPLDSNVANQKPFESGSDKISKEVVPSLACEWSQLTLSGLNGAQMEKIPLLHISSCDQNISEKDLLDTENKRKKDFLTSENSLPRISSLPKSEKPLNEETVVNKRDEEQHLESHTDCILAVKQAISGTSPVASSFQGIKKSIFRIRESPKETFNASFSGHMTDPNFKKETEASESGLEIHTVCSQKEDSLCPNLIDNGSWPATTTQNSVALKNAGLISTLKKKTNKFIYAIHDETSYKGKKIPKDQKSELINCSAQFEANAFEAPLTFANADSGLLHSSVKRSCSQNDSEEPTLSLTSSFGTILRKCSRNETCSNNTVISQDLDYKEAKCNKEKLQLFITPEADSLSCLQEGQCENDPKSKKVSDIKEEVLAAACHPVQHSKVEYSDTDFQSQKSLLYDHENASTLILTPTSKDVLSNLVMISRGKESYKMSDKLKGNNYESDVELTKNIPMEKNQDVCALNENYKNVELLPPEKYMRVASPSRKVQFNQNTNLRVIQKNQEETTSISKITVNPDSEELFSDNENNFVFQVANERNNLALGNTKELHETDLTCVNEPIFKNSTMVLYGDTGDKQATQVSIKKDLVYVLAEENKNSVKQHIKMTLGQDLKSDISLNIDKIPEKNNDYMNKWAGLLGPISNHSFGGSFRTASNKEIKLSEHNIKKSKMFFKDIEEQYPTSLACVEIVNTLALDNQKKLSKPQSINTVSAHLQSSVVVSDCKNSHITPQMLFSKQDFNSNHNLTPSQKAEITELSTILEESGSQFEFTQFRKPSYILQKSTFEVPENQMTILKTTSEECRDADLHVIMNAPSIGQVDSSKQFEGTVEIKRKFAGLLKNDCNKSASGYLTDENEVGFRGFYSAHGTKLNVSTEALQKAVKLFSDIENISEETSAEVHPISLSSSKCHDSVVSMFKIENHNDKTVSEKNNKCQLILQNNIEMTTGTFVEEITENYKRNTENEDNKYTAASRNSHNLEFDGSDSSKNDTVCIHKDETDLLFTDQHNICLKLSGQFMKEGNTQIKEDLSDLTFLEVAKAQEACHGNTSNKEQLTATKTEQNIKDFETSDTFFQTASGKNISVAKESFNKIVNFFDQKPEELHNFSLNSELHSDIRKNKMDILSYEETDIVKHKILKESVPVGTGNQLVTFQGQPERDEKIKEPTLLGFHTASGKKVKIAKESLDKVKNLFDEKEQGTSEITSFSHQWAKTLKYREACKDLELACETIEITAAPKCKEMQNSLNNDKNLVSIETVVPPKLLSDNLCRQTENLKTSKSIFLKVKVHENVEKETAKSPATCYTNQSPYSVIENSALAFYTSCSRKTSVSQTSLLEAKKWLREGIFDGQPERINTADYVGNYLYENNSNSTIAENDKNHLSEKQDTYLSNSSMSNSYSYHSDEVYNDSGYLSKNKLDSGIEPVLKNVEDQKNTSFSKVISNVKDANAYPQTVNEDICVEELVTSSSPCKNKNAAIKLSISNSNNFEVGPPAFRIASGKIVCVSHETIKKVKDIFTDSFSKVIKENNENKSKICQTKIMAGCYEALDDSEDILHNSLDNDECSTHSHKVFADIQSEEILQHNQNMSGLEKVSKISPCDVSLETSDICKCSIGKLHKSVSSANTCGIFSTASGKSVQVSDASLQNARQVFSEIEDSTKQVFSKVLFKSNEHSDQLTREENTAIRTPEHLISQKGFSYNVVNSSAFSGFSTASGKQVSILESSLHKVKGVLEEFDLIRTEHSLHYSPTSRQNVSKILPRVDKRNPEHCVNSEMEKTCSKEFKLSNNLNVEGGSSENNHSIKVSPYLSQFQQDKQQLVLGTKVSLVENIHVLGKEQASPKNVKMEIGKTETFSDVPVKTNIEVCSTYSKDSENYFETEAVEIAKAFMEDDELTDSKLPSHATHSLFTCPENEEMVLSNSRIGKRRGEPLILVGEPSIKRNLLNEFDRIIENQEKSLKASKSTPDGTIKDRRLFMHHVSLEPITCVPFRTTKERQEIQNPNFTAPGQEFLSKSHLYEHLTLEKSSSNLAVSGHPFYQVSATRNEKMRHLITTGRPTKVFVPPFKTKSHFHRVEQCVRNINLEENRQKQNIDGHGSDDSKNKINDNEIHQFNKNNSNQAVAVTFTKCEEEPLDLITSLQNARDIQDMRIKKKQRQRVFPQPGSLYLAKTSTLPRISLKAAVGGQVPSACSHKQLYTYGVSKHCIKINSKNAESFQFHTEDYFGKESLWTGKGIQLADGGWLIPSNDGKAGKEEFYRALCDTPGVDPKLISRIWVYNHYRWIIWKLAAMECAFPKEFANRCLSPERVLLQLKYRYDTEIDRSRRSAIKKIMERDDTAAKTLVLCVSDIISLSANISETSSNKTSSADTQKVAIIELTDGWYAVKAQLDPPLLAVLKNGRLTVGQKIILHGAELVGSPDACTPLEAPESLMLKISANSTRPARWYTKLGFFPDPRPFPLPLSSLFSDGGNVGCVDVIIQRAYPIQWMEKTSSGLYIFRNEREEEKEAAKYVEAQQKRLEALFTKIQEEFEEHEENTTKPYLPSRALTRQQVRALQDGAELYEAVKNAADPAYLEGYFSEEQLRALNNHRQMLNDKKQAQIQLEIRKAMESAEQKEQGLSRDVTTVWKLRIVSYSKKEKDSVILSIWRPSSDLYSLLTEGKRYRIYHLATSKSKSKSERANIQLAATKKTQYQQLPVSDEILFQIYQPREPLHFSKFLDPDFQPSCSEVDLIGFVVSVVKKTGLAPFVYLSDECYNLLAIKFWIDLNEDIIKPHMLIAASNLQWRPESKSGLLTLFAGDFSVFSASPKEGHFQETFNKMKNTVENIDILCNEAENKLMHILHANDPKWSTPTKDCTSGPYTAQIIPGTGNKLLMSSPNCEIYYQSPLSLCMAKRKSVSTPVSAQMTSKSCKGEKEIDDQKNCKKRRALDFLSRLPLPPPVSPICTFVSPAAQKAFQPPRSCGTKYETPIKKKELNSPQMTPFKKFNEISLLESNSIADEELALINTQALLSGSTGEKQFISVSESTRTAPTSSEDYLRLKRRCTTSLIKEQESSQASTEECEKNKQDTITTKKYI

Columns and labels:
[1] = biological target: T1, CCCTC-binding factor (CTCF) (human (endogenous in U251)) (UniProt P49711); experiment: co-IP; Dynabeads Protein G with 2 μg antibody, cell lysates of U251 (IDH1 WT, R132H, R132C) treated with 150 μM TMZ; also with D-2-HG, αKG, AG-120, TET1/TET2 overexpression or knockout, CTCF knockdown; IgG as control
T1 sequence: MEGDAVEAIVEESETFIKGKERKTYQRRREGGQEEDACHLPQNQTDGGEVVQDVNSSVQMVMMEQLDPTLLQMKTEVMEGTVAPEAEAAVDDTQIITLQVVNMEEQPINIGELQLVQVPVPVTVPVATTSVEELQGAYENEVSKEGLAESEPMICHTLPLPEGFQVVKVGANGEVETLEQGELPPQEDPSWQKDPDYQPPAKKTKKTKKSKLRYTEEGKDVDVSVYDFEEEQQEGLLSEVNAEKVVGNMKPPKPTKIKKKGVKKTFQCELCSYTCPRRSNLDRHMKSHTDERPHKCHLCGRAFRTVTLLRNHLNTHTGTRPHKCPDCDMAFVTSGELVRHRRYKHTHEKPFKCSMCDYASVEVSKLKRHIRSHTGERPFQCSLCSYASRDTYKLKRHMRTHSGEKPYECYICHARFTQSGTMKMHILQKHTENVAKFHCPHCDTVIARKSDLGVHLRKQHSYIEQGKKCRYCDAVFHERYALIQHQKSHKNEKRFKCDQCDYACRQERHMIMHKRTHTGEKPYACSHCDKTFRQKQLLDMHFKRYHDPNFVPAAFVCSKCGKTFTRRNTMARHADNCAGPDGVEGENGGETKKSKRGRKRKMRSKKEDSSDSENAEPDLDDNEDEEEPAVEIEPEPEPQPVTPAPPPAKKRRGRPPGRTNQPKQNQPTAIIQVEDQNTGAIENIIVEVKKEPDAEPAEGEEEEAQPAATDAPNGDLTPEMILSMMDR

[2] = biological target: T1, CCCTC-binding factor (CTCF) (human (endogenous in U251)); experiment: proximity ligation; Duolink PLA on fixed, permeabilised U251 cells treated with 150 μM TMZ for 24 h; also with αKG, TET1/TET2 overexpression, TET1/TET2 knockout, CTCF knockdown

| Substance | binding [1] | binding [2] |
| --- | --- | --- |
| RAD51 (from UniProt Q06609 1-339) | binds | binds |
| BRCA2 (from UniProt P51587 1-3418) | binds | binds |
